Assay results: PMC11827841
No constants are given. Whether binding was seen depends on the method and setting. In cells and extracts the contact can be indirect.

By UniProt entry, the sequences of proteins in these tests, tags left out. Residues count along the entry.
UniProt Q6YHK3, residues 22-1420: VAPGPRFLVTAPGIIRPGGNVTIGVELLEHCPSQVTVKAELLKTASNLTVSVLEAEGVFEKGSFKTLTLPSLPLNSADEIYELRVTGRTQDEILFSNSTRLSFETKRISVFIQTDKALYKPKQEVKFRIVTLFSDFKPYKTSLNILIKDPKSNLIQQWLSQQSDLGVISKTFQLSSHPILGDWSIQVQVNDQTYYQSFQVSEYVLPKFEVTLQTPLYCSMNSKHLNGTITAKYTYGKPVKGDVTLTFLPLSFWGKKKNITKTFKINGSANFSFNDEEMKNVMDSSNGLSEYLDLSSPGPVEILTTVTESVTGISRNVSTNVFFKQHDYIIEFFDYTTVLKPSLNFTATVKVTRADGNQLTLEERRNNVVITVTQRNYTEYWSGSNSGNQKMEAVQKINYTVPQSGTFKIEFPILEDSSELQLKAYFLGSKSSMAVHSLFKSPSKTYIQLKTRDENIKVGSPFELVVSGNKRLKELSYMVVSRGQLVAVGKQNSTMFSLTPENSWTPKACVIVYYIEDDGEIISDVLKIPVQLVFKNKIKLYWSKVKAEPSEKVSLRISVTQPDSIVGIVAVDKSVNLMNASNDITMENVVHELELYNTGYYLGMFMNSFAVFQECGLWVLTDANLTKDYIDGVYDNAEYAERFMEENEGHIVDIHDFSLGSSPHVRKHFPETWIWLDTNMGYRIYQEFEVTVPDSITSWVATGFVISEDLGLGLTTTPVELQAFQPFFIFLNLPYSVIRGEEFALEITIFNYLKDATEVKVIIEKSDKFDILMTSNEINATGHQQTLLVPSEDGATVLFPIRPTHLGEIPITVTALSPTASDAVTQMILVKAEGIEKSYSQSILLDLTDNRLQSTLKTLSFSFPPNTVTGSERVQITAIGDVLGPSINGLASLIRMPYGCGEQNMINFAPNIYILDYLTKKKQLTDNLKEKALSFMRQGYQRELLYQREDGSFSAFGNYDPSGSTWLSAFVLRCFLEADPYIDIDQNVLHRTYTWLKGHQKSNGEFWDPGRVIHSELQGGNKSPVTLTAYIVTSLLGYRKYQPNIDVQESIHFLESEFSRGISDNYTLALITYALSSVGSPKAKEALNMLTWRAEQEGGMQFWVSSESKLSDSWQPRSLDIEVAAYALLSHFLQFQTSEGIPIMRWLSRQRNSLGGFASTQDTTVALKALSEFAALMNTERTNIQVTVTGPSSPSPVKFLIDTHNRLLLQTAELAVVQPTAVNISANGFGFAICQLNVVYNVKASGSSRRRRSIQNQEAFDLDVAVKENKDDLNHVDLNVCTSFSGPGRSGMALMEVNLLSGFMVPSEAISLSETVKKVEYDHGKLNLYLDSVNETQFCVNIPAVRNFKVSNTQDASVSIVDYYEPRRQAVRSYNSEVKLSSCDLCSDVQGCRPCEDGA
UniProt F5HB81, residues 27-845: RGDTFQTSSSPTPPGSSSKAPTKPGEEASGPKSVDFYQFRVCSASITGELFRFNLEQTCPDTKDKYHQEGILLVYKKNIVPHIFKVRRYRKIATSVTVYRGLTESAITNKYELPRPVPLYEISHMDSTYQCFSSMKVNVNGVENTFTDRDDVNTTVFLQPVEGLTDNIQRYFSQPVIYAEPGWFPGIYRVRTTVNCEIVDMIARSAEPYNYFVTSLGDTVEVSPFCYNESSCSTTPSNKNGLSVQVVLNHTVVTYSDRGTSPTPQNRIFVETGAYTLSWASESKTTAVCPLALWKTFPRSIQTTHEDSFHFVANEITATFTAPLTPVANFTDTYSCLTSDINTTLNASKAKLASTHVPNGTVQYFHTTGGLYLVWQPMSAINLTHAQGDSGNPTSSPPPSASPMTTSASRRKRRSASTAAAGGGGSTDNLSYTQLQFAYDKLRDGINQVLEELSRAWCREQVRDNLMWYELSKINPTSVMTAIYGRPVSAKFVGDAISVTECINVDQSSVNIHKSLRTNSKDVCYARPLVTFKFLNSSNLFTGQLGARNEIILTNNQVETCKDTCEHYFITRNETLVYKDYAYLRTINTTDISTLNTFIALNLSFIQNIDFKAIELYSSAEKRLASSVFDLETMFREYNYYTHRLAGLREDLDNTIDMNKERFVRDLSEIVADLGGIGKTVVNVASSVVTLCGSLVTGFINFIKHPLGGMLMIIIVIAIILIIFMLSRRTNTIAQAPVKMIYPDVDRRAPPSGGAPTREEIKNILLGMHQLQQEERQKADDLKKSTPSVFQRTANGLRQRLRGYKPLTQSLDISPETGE

Molecular target: 3xFLAG-CD109 (human) (UniProt Q6YHK3)
Test: co-IP; HEK-293T cells cotransfected with 3xFLAG-CD109 and tagged KSHV glycoproteins for 24 hours; 500 ug lysate on anti-FLAG magnetic agarose beads, room temperature 20 minutes, eluted with 0.1 M glycine pH 2.8; immunoblot

With “KSHV glycoprotein gB-3xHA (from UniProt F5HB81 27-845)” the binding was “no binding”.
